Results are given in words; binding and its absence hold for the method and conditions named. Some entries that bind do so weakly or less than the wild type.
Target: T1, canine IL-13 receptor alpha 2 (cIL-13R alpha 2) (canine) (UniProt Q95LF0)
T1 sequence: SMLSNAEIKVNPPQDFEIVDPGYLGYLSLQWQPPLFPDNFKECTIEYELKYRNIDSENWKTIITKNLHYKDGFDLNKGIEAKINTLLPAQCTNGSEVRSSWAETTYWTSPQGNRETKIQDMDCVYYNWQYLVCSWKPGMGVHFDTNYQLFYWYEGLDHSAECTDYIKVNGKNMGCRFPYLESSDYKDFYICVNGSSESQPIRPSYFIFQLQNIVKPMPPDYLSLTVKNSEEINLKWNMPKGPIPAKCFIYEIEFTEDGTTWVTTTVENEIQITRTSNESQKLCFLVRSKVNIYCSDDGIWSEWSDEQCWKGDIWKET
Assay: summary of the examples; assay not described

binding: binds
B1: Recombinant canine IL-13 (R&D Systems, Catalog: 5894-CL/CF) (ligand, UniProt Q9N0W9 19-131, looked up)
chain: SPSPVTPSPTLKELIEELVNITQNQASLCNGSMVWSVNLTAGMYCAALESLINVSDCSAIQRTQRMLKALCSQKPAAGQISSERSRDTKIEVIQLVKNLLTYVRGVYRHGNFR
